Results reported in article PMC5974482.
No constants are given. Whether binding was seen depends on the method and setting. In cells and extracts the contact can be indirect. These calls come from enrichment with a bait or labelling near it, and not all partners need be listed. For part of these data: A no says only that the protein was not detected with the bait. Values belong to the molecule of their own block, whether it stands above or below them.

Amino acid sequences for entries named in this document (tags omitted).
UniProt Q92600: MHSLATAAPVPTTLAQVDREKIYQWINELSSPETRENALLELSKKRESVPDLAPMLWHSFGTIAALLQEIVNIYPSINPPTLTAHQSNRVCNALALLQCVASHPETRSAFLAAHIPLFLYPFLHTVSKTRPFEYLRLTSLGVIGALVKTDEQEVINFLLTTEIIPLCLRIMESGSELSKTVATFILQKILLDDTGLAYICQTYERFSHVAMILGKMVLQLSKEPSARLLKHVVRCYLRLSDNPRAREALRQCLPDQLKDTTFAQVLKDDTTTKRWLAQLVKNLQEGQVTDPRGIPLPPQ
UniProt Q9H9A5: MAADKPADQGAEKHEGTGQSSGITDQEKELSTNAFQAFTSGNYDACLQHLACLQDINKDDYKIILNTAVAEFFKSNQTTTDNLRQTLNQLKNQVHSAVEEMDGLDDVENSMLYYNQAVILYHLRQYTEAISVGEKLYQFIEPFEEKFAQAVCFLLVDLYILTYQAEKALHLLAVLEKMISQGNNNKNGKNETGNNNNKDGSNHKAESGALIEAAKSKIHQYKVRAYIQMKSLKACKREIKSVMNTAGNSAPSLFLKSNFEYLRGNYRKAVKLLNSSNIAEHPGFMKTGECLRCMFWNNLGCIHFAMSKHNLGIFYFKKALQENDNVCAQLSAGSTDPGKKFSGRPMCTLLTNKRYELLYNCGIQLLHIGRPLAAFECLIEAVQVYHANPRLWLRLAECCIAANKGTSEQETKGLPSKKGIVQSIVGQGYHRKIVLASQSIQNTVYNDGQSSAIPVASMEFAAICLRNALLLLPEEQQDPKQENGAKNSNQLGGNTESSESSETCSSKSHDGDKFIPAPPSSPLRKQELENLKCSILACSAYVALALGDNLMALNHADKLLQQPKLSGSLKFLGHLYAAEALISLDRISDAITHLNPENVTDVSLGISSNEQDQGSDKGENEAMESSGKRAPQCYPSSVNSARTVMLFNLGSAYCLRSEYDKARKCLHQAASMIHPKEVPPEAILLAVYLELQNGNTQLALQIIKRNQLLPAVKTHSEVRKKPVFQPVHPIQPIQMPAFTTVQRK
UniProt O75175: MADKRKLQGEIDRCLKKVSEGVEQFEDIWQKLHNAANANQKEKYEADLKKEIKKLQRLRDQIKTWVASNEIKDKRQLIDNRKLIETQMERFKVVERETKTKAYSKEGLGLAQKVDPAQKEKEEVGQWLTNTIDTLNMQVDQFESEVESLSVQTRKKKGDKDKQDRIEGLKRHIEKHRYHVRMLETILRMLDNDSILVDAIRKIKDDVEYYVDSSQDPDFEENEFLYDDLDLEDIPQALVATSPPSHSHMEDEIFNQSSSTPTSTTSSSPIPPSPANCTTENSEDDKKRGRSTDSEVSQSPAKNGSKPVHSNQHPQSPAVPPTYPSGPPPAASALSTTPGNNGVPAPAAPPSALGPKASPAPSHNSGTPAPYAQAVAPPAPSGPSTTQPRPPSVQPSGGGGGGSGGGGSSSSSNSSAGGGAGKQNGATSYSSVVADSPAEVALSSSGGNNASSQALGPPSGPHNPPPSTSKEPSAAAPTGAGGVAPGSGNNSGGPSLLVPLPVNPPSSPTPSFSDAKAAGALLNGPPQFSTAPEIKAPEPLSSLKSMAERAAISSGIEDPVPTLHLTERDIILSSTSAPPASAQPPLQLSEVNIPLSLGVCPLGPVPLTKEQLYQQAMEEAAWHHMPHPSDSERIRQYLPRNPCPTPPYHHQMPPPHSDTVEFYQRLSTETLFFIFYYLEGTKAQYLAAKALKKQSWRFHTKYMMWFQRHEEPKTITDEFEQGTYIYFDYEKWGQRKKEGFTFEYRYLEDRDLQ
UniProt Q9UFF9: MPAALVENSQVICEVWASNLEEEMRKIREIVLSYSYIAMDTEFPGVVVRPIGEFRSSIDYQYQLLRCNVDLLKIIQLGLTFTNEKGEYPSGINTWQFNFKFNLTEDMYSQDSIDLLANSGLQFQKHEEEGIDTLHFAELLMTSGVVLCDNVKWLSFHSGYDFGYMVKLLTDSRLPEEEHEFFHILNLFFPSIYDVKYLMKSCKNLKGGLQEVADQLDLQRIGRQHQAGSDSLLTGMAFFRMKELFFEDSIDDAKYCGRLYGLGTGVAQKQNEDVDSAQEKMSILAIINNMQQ
UniProt A5YKK6: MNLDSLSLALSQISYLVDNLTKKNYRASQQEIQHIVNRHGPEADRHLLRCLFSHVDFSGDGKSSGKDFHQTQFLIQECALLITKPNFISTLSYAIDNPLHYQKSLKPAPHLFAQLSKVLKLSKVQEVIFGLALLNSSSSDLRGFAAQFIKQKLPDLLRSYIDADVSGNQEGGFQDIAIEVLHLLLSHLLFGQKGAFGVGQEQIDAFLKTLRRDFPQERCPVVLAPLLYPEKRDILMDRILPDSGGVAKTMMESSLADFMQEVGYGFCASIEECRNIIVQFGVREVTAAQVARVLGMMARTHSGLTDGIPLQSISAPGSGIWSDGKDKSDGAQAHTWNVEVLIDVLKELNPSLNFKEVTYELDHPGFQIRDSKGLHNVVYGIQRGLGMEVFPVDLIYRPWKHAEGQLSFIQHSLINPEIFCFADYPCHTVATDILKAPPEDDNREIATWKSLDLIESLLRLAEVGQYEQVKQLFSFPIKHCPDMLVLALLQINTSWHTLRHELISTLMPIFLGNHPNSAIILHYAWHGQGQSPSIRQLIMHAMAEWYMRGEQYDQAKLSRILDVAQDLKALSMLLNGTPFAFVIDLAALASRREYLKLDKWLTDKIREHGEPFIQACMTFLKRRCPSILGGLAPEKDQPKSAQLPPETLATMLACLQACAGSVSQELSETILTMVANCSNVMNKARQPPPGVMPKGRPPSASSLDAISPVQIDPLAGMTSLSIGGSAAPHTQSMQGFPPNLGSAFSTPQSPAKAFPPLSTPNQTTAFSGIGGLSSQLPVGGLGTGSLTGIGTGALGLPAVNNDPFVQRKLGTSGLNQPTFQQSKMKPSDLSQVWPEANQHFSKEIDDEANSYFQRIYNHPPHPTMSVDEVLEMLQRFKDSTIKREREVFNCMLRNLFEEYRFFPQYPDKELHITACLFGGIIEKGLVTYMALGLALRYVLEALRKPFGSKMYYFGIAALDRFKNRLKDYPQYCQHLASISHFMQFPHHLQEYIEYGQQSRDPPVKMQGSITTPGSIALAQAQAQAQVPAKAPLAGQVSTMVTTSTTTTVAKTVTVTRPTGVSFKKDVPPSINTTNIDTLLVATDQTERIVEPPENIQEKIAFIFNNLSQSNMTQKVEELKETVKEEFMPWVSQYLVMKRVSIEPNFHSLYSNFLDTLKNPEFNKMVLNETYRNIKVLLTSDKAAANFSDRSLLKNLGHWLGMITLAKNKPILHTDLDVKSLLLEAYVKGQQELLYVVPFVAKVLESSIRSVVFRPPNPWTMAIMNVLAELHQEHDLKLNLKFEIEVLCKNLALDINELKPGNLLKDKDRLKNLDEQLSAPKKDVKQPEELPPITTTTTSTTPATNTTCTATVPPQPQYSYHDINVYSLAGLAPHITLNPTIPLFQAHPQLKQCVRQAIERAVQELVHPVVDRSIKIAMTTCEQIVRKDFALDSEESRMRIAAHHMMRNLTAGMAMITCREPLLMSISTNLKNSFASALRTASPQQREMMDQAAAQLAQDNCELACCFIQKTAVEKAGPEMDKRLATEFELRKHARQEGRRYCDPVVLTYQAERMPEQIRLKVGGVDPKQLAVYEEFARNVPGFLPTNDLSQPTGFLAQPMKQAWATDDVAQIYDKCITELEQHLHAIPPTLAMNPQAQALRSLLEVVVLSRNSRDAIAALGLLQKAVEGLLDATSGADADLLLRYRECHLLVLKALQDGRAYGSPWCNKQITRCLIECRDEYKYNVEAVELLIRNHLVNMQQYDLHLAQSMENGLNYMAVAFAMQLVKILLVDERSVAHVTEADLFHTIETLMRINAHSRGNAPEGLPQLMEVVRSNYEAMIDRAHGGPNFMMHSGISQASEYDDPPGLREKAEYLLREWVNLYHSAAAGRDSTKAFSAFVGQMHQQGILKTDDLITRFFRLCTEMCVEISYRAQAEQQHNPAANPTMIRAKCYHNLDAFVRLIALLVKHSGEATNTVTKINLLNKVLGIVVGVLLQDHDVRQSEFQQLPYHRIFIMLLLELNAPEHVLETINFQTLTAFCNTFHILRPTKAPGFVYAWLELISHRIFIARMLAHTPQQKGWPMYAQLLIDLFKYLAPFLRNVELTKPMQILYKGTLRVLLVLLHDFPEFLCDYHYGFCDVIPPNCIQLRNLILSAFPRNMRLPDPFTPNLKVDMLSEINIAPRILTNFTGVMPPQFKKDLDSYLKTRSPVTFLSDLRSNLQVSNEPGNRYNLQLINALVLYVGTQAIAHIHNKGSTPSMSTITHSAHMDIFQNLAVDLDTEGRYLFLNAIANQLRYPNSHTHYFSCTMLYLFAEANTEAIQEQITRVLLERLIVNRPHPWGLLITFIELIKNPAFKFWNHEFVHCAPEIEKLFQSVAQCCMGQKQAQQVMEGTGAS
UniProt Q9NZN8: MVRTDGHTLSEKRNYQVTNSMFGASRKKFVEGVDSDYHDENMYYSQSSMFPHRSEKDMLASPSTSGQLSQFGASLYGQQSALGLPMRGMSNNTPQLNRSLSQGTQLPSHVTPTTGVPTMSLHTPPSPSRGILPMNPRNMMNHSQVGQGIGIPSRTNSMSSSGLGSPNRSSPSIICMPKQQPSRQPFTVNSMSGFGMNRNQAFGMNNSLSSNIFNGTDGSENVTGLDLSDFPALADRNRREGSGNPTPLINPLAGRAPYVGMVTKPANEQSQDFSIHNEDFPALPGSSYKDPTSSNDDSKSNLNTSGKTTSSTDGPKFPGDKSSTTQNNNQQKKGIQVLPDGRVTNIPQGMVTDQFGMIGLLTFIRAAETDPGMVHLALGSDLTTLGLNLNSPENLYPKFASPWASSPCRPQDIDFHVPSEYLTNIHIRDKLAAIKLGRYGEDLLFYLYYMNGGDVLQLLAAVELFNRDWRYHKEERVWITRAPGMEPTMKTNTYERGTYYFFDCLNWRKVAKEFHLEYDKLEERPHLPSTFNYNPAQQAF
UniProt Q9UIV1: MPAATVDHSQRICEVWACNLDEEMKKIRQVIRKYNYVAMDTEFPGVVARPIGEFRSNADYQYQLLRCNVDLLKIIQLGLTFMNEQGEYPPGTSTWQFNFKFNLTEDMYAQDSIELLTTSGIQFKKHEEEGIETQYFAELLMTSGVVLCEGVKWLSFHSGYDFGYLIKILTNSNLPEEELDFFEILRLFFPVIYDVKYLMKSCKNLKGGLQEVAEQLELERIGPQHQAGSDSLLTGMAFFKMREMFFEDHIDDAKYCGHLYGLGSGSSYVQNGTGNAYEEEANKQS

Tests used:
[1] = molecular target: Tankyrase 1 binding protein 1 (TNKS1BP1, Tab182), endogenous (human (endogenous in Ad5E1HEK293, Ad12E1HER2, HeLa, HEK293FT)) (UniProt Q9C0C2); assay: affinity purification with mass spectrometry
[2] = molecular target: T1, Tankyrase 1 binding protein 1 (TNKS1BP1, Tab182), endogenous (human (endogenous in Ad5E1HEK293, Ad12E1HER2, HeLa, HEK293FT)), Q9C0C2; assay: affinity purification with mass spectrometry; settings: remark: other sources report otherwise
T1 chain: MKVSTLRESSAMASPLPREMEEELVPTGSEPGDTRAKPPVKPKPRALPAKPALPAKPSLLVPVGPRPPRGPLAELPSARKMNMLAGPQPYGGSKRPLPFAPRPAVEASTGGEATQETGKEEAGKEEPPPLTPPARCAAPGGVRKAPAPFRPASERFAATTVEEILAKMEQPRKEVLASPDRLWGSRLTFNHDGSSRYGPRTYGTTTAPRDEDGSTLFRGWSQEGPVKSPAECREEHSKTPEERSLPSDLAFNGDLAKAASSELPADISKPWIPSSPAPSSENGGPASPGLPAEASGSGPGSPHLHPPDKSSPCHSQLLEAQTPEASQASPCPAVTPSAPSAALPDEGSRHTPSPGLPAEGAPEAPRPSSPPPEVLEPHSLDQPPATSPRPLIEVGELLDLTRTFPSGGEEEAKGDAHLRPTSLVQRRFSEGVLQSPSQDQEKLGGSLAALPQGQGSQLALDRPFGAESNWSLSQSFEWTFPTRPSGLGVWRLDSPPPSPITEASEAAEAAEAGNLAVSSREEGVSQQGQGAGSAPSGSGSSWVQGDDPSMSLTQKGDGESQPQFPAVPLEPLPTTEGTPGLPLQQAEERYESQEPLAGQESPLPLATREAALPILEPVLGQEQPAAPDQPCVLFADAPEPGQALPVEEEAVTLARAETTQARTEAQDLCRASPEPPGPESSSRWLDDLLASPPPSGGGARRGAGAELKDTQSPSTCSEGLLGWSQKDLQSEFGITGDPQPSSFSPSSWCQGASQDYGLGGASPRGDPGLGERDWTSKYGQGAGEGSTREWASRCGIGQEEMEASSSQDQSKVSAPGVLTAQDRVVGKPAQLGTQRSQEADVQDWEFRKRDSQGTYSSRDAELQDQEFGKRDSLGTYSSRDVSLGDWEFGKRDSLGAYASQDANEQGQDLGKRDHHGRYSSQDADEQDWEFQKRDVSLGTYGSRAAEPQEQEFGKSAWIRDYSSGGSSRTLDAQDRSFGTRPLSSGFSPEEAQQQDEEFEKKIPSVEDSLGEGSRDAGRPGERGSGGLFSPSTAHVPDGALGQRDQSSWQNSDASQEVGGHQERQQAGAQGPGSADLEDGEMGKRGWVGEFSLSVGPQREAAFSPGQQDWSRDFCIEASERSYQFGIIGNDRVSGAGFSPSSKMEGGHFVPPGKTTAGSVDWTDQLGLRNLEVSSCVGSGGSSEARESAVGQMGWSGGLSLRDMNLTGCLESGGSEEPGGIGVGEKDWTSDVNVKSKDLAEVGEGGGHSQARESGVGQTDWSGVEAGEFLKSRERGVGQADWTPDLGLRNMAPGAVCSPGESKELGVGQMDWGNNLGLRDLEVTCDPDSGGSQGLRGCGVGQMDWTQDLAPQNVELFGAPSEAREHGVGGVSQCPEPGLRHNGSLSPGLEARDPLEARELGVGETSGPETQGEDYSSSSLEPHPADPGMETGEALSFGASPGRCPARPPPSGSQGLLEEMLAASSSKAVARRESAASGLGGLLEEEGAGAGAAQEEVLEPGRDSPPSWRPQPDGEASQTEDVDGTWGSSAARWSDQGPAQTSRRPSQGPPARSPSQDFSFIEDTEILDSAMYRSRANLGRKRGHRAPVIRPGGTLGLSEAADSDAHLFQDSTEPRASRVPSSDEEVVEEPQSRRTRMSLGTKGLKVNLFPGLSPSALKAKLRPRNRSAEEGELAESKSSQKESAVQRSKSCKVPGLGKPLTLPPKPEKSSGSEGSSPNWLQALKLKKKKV

binding [1]: binds
Molecule: RCD1 (CNOT9) (from UniProt Q92600 1-299)

binding [1]: binds
Molecule: CNOT10 (from UniProt Q9H9A5 1-744)

binding [1]: binds
Molecule: CNOT3 (from UniProt O75175 1-753)

binding [1]: binds
Molecule: CNOT8 (from UniProt Q9UFF9 1-292)

binding [1]: binds
Molecule: CNOT1 (from UniProt A5YKK6 1-2376)

binding [1]: binds
Molecule: CNOT2 (from UniProt Q9NZN8 1-540)

binding [1]: binds
Molecule: CNOT7 (from UniProt Q9UIV1 1-285)

binding [2]: no binding
B1: CNOT4, O95628 1-575 (protein)
chain: MSRSPDAKEDPVECPLCMEPLEIDDINFFPCTCGYQICRFCWHRIRTDENGLCPACRKPYPEDPAVYKPLSQEELQRIKNEKKQKQNERKQKISENRKHLASVRVVQKNLVFVVGLSQRLADPEVLKRPEYFGKFGKIHKVVINNSTSYAGSQGPSASAYVTYIRSEDALRAIQCVNNVVVDGRTLKASLGTTKYCSYFLKNMQCPKPDCMYLHELGDEAASFTKEEMQAGKHQEYEQKLLQELYKLNPNFLQLSTGSVDKNKNKVTPLQRYDTPIDKPSDSLSIGNGDNSQQISNSDTPSPPPGLSKSNPVIPISSSNHSARSPFEGAVTESQSLFSDNFRHPNPIPSGLPPFPSSPQTSSDWPTAPEPQSLFTSETIPVSSSTDWQAAFGFGSSKQPEDDLGFDPFDVTRKALADLIEKELSVQDQPSLSPTSLQNSSSHTTTAKGPGSGFLHPAAATNANSLNSTFSVLPQRFPQFQQHRAVYNSFSFPGQAARYPWMAFPRNSIMHLNHTANPTSNSNFLDLNLPPQHNTGLGGIPVAGEEEVKVSTMPLSTSSHSLQQGQQPTSLHTTVA

binding [1]: binds
B2: FHL2 (protein, UniProt Q14192 1-279)
chain: MTERFDCHHCNESLFGKKYILREESPYCVVCFETLFANTCEECGKPIGCDCKDLSYKDRHWHEACFHCSQCRNSLVDKPFAAKEDQLLCTDCYSNEYSSKCQECKKTIMPGTRKMEYKGSSWHETCFICHRCQQPIGTKSFIPKDNQNFCVPCYEKQHAMQCVQCKKPITTGGVTYREQPWHKECFVCTACRKQLSGQRFTARDDFAYCLNCFCDLYAKKCAGCTNPISGLGGTKYISFEERQWHNDCFNCKKCSLSLVGRGFLTERDDILCPDCGKDI
